From article PMC11019746 (ACS Pharmacology & Translational Science, 2024)
For part of these data: HELM strings list residues between dots; [ac] is acetyl, [am] amide, other brackets name non-standard units.

Experiments:
[1] = general procedure: Fmoc solid-phase peptide synthesis; Fmoc-Sieber PS resin (0.59 mmol/g); HBTU/HOBt/DIPEA; conditions: for final HPLC purity: 220 nm
[2] = general procedure: Fmoc solid-phase peptide synthesis; Fmoc-Sieber PS resin; HBTU/HOBt/DIPEA; conditions: whole synthesis, tetrakis(hydrotrifluoroacetate)

Substance | final HPLC purity ([1]; conjugation step, TFA salt) | conjugation yield ([1]; conjugation step, TFA salt) | also measured
PEPTIDE1{[S0223].[GABA].[bDAsp].R.Y.[Arg(carbC4N)].L.R.Y.[am]}$PEPTIDE1,PEPTIDE1,3:R3-6:R3$$$V2.0 | 96% | 70% | –
PEPTIDE1{[Suc].[Arg(carbPy5)].Y.[Arg(carbC4N)].L.R.Y.[am]}$PEPTIDE1,PEPTIDE1,1:R3-4:R3$$$V2.0 | 95% | 27% | –
PEPTIDE1{[Cy3B-pentynoyl].[GABA].[bDAsp].R.Y.[Arg(carbC4N)].L.R.Y.[am]}$PEPTIDE1,PEPTIDE1,3:R3-6:R3$$$V2.0 | 99% | 35% | –
PEPTIDE1{[Py1-butanoyl].[bDAsp].R.Y.[Arg(carbC4N)].L.R.Y.[am]}$PEPTIDE1,PEPTIDE1,2:R3-5:R3$$$V2.0 | 97% | 34% | –
N^α-Succinyl-N^ω[hex-5-ynylaminocarbonyl]-Arg-Tyr-N^ω-[(aminobutyl)aminocarbonyl] Arg-Leu-Arg-Tyr-Amide Tetrakis(hydrotrifluoroacetate) | – | – | isolated mass [2]: 37.65 mg; isolated yield ([1]; whole synthesis, overall, scale of the general procedure 100 mg resin, TFA salt): 37%
PEPTIDE1{[Suc].[Arg(carbHexyne)].Y.[Arg(carbC4N)].L.R.Y.[am]}$PEPTIDE1,PEPTIDE1,1:R3-4:R3$$$V2.0 | – | – | final HPLC purity ([1]; cyclisation step, TFA salt): 98%; cyclisation yield ([1]; cyclisation step, on linear precursor 10, TFA salt): 21%
